# Measured values published in patent publication US12385017B2, “Acute respiratory distress syndrome therapeutic agent” (LTT Bio-Pharma Co., Ltd., priority 2015, dated 2025).
# At least one compound was matched to its structure with a doubt left.
# System: CLP-induced systemic inflammation
# Test: CLP-induced systemic inflammation (plasma inflammatory cytokines)
# Type: in vivo, mouse
# Settings: male ICR mice, drug once before CLP, plasma 8 hours after CLP
# Protocol: A mouse was anesthetized with pentobarbital (10 mg/kg, intraperitoneally) and a small abdominal midline incision was made to expose the cecum thereof. Subsequently, the cecum was ligated at approximately 2 cm with a silk thread and punctured twice with an 18 G needle (manufactured by Terumo Corporation). Then, the abdomen was closed.
# Sham mice (sham operation group) were subjected to the same operation except the ligation and puncture of the cecum. […]
# The levels of BUN and creatinine in blood were measured by using a DRI-CHEM slide and LabAssay creatinine, respectively, according to the protocols. The level of inflammatory cytokines in plasma was measured by an Elisa kit according to the protocol. […]
# Drugs were administered once before the CLP operation or the sham operation. […] Plasma samples were prepared and the level of inflammatory cytokines in plasma was measured.
# A CLP operation or a sham operation was performed on a male ICR mouse. […] A plasma sample was prepared 8 hours after the CLP investigation and the levels of BUN and creatinine (Test A) and the level of inflammatory cytokines (Test B) were measured.
# A CLP operation or a sham operation was performed on a male ICR mouse. […] A plasma sample was prepared 8 hours after the CLP operation and the levels of BUN and creatinine (Test A) and the level of inflammatory cytokines (Test B) were measured.
smiles,measurement,value
C[C@@H]1C[C@H]2[C@@H]3CCC4=CC(=O)C=C[C@]4(C)[C@@]3(F)[C@@H](O)C[C@]2(C)[C@@]1(O)C(=O)CO [dexamethasone],IL-6 level in plasma,failed in suppressing an increase
same,TNF-α level in plasma,failed in suppressing an increase
